Source: article PMC10739865, “The Mycobacterium tuberculosis methyltransferase Rv2067c manipulates host epigenetic programming to promote its own survival” (Nature Communications, 2023)
Results are given in words; binding and its absence hold for the method and conditions named. In cells and extracts the contact can be indirect. Some binding calls cover weakened binding; strength is not graded here.

The chains behind the UniProt entries cited, without tags or fusion partners. Residues count along the entry.
UniProt P9WMK7, residues 3-216: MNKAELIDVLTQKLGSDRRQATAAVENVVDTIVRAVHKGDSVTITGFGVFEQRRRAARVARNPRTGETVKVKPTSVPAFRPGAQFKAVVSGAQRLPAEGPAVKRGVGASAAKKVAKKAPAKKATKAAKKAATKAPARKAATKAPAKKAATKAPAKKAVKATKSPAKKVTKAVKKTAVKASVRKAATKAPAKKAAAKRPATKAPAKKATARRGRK
UniProt P9WLL9, residues 2-407: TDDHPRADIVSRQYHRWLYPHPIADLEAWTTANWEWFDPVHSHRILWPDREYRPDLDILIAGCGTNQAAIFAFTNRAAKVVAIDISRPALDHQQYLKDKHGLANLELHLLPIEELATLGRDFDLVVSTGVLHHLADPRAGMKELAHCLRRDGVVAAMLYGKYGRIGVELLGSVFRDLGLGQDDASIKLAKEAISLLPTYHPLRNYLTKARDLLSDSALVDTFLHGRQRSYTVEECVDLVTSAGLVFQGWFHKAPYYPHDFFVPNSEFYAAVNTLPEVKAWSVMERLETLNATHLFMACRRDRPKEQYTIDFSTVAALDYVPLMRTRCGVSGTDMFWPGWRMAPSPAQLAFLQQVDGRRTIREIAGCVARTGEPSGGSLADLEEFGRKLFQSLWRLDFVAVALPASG

Target: Mtb histone-like protein HU (MtHU) (Mycobacterium tuberculosis) (UniProt P9WMK7)
Test: pull-down; MtHU as bait; no further details in the text shown (Supplementary Fig. 1a)

In the case of “Rv2067c (prey found in the MtHU pulldown) (from UniProt P9WLL9 2-407) (enzyme)”, the binding is reported as “binds”.
